PubChem BioAssay AID652272 – Drosophila RNAi Screening Center, 2013
Assay: 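Finding fly genes that regulate Hedgehog signal transduction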 (primary screen). System: Drosophila clone 8 (Cl8) cells. Reagents: long dsRNA against Drosophila genes. Read-out: 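Plate reader light from a firefly reporter under a ptc promoter fragment that responds to Hedgehog, with Renilla light as transfection reference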. Reading the numbers: firefly Hh reporter signal: higher = more ptc reporter light; Renilla reference signal: higher = more Renilla control light. Active means: 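Called a hit if the two-replicate mean z-score lies below -2 or above +3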. Calls: active = hit: reporter lowered or raised; inactive = not a hit.
The deposit covers about 21,000 reagents; below is an unselected part of those with a known target gene and a result. In the full data, 503 (2.4%) got an active call. 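Raw plate light values, not normalised; calls rest on replicate z-scores that were not deposited; hits include reporter decreases as well as increases.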 The numbers tell different reagents against one gene apart. Not stated in the record: the amount of reagent, the time to read-out.

target gene	dsRNA no.	firefly Hh reporter signal, replicate 1	firefly Hh reporter signal, replicate 2	firefly Hh reporter signal, replicate 3	Renilla reference signal, replicate 1	Renilla reference signal, replicate 2	outcome
CG33769	1	90602	94491		3100	1748	inactive
nSMase	1	1.12e5	63889		5533	3048	inactive
bves	1	99776	1.66e5		3669	6672	inactive
bves	2	1.12e5	2.42e5		4563	10628	inactive
bves	3	1.09e5	2.32e5		4299	10539	inactive
CG34357	1	1.21e5	1.17e5		4164	3010	inactive
CG34357	2	65847	91394		2423	2329	inactive
CG34357	3	1.23e5	1.60e5		4272	4264	inactive
Non2	1	1.36e5	85351		5762	2576	inactive
ND-B15	1	98132	81525		1896	4966	inactive
ari-2	1	1.08e5	45798		2816	2829	inactive
CG14882	1	1.08e5	78089		4496	2925	inactive
Tsp86D	1	72999	1.26e5		2690	3779	inactive
bol	1	90629	2.06e5		3014	9365	inactive
bol	2	63766	73104		3328	3242	inactive
bol	3	79936	73328		4006	2978	inactive
CG11041	1	1.05e5	79337		2823	5188	inactive
CG8349	1	87687	55701		2528	5421	inactive
CG34005	1	1.05e5	1.92e5		3201	7872	inactive
CG15696	1	5.01e5	97046		25178	2133	inactive
Drl-2	1	1.28e5	1.99e5		3632	8144	inactive
Drl-2	2	1.11e5	63688		2765	5000	inactive
Drl-2	3	1.11e5	68165		2701	5608	inactive
scrib	1	48341	1.80e5		12897	4812	inactive
scrib	2	50900	1.48e5		13953	4295	inactive
scrib	3	68934	74345		2112	2609	inactive
scrib	4	81938	98658		1819	2236	inactive
CG9733	1	79146	90208		2108	3373	inactive
nw	1	92994	78721		1987	5569	inactive
nw	2	96582	76794		4297	3281	inactive
nw	3	66199	40650		1640	3489	inactive
defl	1	87731	44886		3400	568	inactive
Zmynd8	1	1.12e5	53920		2885	1800	inactive
CG2004	1	74873	2.91e5		2800	11330	inactive
SPE	1	1.22e5	78260		5149	3606	inactive
CG31674	1	62327	51254		1287	5052	inactive
CG5191	1	1.77e5	1.70e5		7174	5926	inactive
CG5191	2	5.81e5	88816		33104	2450	inactive
CG14304	1	4.11e5	55154		25360	1942	inactive
CG5180	1	6.72e5	1.01e5		31424	2515	inactive
CG7974	1	1.37e5	80131		5290	3803	inactive
Axn	1	4.78e5	1.10e5	76754	2600	2960	active
Arc1	1	1.06e5	7.21e5	50576	3913	46538	inactive
nkd	1	1.12e5	1.12e5		3110	3367	inactive
dnt	1	52691	36474		2760	1907	inactive
CG3280 (retired record)	1	50464	41622	56631	3329	3760	inactive
Mtpalpha	1	64827	56320		2727	2411	inactive
BckdhA	1	74704	1.14e5		2601	2885	inactive
CG3955	1	91532	50609		4297	1891	inactive
Cpr30F	1	87796	86016		3397	3157	inactive
Hesr	1	90416	2.19e5		3009	9184	inactive
Zasp66	1	83477	1.79e5		2440	7720	inactive
Zasp66	2	1.12e5	81185		4457	3364	inactive
Zasp66	3	58700	64198		5741	4788	inactive
stx	1	45264	27385		2989	1240	active
stx	2	52272	1.10e5		1644	4551	inactive
Dscam4	1	95416	1.91e5		3018	8569	inactive
Dscam4	2	1.16e5	2.24e5		3456	9618	inactive
Dscam4	3	30246	48155		4589	3024	inactive
Dscam4	4	15363	34262		3715	2987	inactive
Dscam4	5	80572	70944		7869	5240	inactive
Gfat2	1	78624	71027		1412	2000	inactive
CG4781	1	97193	74205		2373	6294	inactive
sn	1	83888	1.97e5		3078	6946	inactive
CG9154	1	81499	67181		4278	3152	inactive
Acsx1L	1	5.63e5	87911		27891	2790	inactive
CG13042	1	1.49e5			2866	4227	inactive
CG13692	1	1.21e5	99651		2821	2636	inactive
lncRNA:CR43613	1	45932	2.53e5		12589	5288	inactive
ReepB	1	1.31e5	60152		4646	2375	inactive
Fim	1	77670	1.19e5		2006	3108	inactive
slpr	1	89066	97213		2033	2106	inactive
CG11562	1	1.10e5	90544		2856	2178	inactive

Records listed so far called active (2):
target gene	dsRNA no.	firefly Hh reporter signal, replicate 1	firefly Hh reporter signal, replicate 2	firefly Hh reporter signal, replicate 3	Renilla reference signal, replicate 1	Renilla reference signal, replicate 2	outcome
Axn	1	4.78e5	1.10e5	76754	2600	2960	active
stx	1	45264	27385		2989	1240	active
